No constants are given. Whether binding was seen depends on the method and setting.
Assays:
[1] = target: A2ML1 in human skin extract (human (endogenous in skin)) (UniProt A8K2U0); assay: native gel or EMSA; human skin extract (0.1% NP40) run on native pore-limited PAGE (TBE, 10–20% gradient); lane cut into 10 slices, in-gel digestion and LC-MS/MS
[2] = target: Human alpha-2 macroglobulin-like 1 (A2ML1), recombinant wild type, native (human) (UniProt A8K2U0); assay: SEC; calibrated analytical SEC on Superdex 200 Increase 10/300 GL in HBS; 50 µg A2ML1, 20 µg native A2ML1t and A2ML1-CC; both purified

Binder | binding [1] | binding [2]
A2ML1 in human skin extract (protein, UniProt A8K2U0 18-1454) EELPNYLVTLPARLNFPSVQKVCLDLSPGYSDVKFTVTLETKDKTQKLLEYSGLKKRHLHCISFLVPPPAGGTEEVATIRVSGVGNNISFEEKKKVLIQRQGNGTFVQTDKPLYTPGQQVYFRIVTMDSNFVPVNDKYSMVELQDPNSNRIAQWLEVVPEQGIVDLSFQLAPEAMLGTYTVAVAEGKTFGTFSVEEYVLPKFKVEVVEPKELSTVQESFLVKICCRYTYGKPMLGAVQVSVCQKANTYWYREVEREQLPDKCRNLSGQTDKTGCFSAPVDMATFDLIGYAYSHQINIVATVVEEGTGVEANATQNIYISPQMGSMTFEDTSNFYHPNFPFSGKIRVRGHDDSFLKNHLVFLVIYGTNGTFNQTLVTDNNGLAPFTLETSGWNGTDVSLEGKFQMEDLVYNPEQVPRYYQNAYLHLRPFYSTTRSFLGIHRLNGPLKCGQPQEVLVDYYIDPADASPDQEISFSYYLIGKGSLVMEGQKHLNSKKKGLKASFSLSLTFTSRLAPDPSLVIYAIFPSGGVVADKIQFSVEMCFDNQVSLGFSPSQQLPGAEVELQLQAAPGSLCALRAVDESVLLLRPDRELSNRSVYGMFPFWYGHYPYQVAEYDQCPVSGPWDFPQPLIDPMPQGHSSQRSIIWRPSFSEGTDLFSFFRDVGLKILSNAKIKKPVDCSHRSPEYSTAMGAGGGHPEAFESSTPLHQAEDSQVRQYFPETWLWDLFPIGNSGKEAVHVTVPDAITEWKAMSFCTSQSRGFGLSPTVGLTAFKPFFVDLTLPYSVVRGESFRLTATIFNYLKDCIRVQTDLAKSHEYQLESWADSQTSSCLCADDAKTHHWNITAVKLGHINFTISTKILDSNEPCGGQKGFVPQKGRSDTLIKPVLVKPEGVLVEKTHSSLLCPKGKVASESVSLELPVDIVPDSTKAYVTVLGDIMGTALQNLDGLVQMPSGCGEQNMVLFAPIIYVLQYLEKAGLLTEEIRSRAVGFLEIGYQKELMYKHSNGSYSAFGERDGNGNTWLTAFVTKCFGQAQKFIFIDPKNIQDALKWMAGNQLPSGCYANVGNLLHTAMKGGVDDEVSLTAYVTAALLEMGKDVDDPMVSQGLRCLKNSATSTTNLYTQALLAYIFSLAGEMDIRNILLKQLDQQAIISGESIYWSQKPTPSSNASPWSEPAAVDVELTAYALLAQLTKPSLTQKEIAKATSIVAWLAKQHNAYGGFSSTQDTVVALQALAKYATTAYMPSEEINLVVKSTENFQRTFNIQSVNRLVFQQDTLPNVPGMYTLEASGQGCVYVQTVLRYNILPPTNMKTFSLSVEIGKARCEQPTSPRSLTLTIHTSYVGSRSSSNMAIVEVKMLSGFSPMEGTNQLLLQQPLVKKVEFGTDTLNIYLDELIKNTQTYTFTISQSVLVTNLKPATIKVYDYYLPDEQATIQYSDPCE | no binding | –
Human alpha-2 macroglobulin-like 1 (A2ML1), recombinant wild type, native (protein, UniProt A8K2U0 18-1454, internal thioester Cys970-Gln973; N-glycans (Asn120, Asn328, Asn857 named)) EELPNYLVTLPARLNFPSVQKVCLDLSPGYSDVKFTVTLETKDKTQKLLEYSGLKKRHLHCISFLVPPPAGGTEEVATIRVSGVGNNISFEEKKKVLIQRQGNGTFVQTDKPLYTPGQQVYFRIVTMDSNFVPVNDKYSMVELQDPNSNRIAQWLEVVPEQGIVDLSFQLAPEAMLGTYTVAVAEGKTFGTFSVEEYVLPKFKVEVVEPKELSTVQESFLVKICCRYTYGKPMLGAVQVSVCQKANTYWYREVEREQLPDKCRNLSGQTDKTGCFSAPVDMATFDLIGYAYSHQINIVATVVEEGTGVEANATQNIYISPQMGSMTFEDTSNFYHPNFPFSGKIRVRGHDDSFLKNHLVFLVIYGTNGTFNQTLVTDNNGLAPFTLETSGWNGTDVSLEGKFQMEDLVYNPEQVPRYYQNAYLHLRPFYSTTRSFLGIHRLNGPLKCGQPQEVLVDYYIDPADASPDQEISFSYYLIGKGSLVMEGQKHLNSKKKGLKASFSLSLTFTSRLAPDPSLVIYAIFPSGGVVADKIQFSVEMCFDNQVSLGFSPSQQLPGAEVELQLQAAPGSLCALRAVDESVLLLRPDRELSNRSVYGMFPFWYGHYPYQVAEYDQCPVSGPWDFPQPLIDPMPQGHSSQRSIIWRPSFSEGTDLFSFFRDVGLKILSNAKIKKPVDCSHRSPEYSTAMGAGGGHPEAFESSTPLHQAEDSQVRQYFPETWLWDLFPIGNSGKEAVHVTVPDAITEWKAMSFCTSQSRGFGLSPTVGLTAFKPFFVDLTLPYSVVRGESFRLTATIFNYLKDCIRVQTDLAKSHEYQLESWADSQTSSCLCADDAKTHHWNITAVKLGHINFTISTKILDSNEPCGGQKGFVPQKGRSDTLIKPVLVKPEGVLVEKTHSSLLCPKGKVASESVSLELPVDIVPDSTKAYVTVLGDIMGTALQNLDGLVQMPSGCGEQNMVLFAPIIYVLQYLEKAGLLTEEIRSRAVGFLEIGYQKELMYKHSNGSYSAFGERDGNGNTWLTAFVTKCFGQAQKFIFIDPKNIQDALKWMAGNQLPSGCYANVGNLLHTAMKGGVDDEVSLTAYVTAALLEMGKDVDDPMVSQGLRCLKNSATSTTNLYTQALLAYIFSLAGEMDIRNILLKQLDQQAIISGESIYWSQKPTPSSNASPWSEPAAVDVELTAYALLAQLTKPSLTQKEIAKATSIVAWLAKQHNAYGGFSSTQDTVVALQALAKYATTAYMPSEEINLVVKSTENFQRTFNIQSVNRLVFQQDTLPNVPGMYTLEASGQGCVYVQTVLRYNILPPTNMKTFSLSVEIGKARCEQPTSPRSLTLTIHTSYVGSRSSSNMAIVEVKMLSGFSPMEGTNQLLLQQPLVKKVEFGTDTLNIYLDELIKNTQTYTFTISQSVLVTNLKPATIKVYDYYLPDEQATIQYSDPCE | – | no binding
